Measured values reported in patent US20020123042A1.
No constants are given. Whether binding was seen depends on the method and setting. In cells and extracts the contact can be indirect. Some entries that bind do so weakly or less than the wild type.

Amino acid sequences for entries named in this document (tags omitted). A change or cut given only in a name is not applied to a line headed by its entry.
UniProt O43683: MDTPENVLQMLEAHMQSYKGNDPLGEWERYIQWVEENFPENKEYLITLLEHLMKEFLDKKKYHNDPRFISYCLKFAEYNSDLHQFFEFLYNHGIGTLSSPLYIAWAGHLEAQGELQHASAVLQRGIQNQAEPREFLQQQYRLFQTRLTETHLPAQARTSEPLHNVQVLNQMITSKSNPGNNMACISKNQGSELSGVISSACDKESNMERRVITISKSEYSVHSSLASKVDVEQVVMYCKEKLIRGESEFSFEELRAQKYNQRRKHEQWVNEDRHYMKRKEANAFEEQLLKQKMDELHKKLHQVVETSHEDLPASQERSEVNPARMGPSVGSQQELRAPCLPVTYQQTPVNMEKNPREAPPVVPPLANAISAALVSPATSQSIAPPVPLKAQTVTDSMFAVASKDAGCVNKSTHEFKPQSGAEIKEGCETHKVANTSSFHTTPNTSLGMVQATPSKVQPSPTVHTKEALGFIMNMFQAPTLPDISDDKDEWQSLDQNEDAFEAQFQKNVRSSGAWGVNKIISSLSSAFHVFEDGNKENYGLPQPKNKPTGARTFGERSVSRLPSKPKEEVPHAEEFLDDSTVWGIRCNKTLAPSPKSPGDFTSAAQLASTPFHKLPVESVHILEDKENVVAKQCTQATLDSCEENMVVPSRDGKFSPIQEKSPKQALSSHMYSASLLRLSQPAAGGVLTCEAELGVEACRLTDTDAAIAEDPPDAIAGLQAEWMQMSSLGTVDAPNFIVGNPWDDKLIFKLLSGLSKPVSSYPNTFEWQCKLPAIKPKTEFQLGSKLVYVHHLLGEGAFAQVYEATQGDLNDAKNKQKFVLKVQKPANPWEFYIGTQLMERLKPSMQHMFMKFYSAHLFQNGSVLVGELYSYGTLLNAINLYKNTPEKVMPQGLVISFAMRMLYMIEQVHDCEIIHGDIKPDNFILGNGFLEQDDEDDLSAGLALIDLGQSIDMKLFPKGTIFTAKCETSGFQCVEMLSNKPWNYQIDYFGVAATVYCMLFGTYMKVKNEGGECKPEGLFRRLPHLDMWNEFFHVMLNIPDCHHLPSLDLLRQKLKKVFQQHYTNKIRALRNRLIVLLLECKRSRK
UniProt O43684: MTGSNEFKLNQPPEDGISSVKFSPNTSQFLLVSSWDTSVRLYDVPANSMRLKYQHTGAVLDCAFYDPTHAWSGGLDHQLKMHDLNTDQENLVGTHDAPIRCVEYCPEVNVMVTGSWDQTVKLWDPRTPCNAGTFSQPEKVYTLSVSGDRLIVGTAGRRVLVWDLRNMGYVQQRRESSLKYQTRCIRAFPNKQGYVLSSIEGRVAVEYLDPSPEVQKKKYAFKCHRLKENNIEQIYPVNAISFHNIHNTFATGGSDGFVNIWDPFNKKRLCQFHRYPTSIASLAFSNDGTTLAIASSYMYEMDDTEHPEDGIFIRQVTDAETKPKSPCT

Columns and labels:
[1] = target: full-length HA-epitope tagged huBUB1 (plasmid p396-1) (human) (UniProt O43683); assay: anti-HA co-immunoprecipitation with full-length HA-BUB1
[2] = target: wild-type huBUB1 (full-length, plasmid p385-1) (human) (UniProt O43683); assay: co-immunoprecipitation of in vitro translated proteins

- binding [1]: binds
- binding [2]: binds
Substance: wild type huBUB3 (plasmid p291-2) (from UniProt O43684 1-328)
